# Results from PubChem BioAssay AID504834 (National Center for Advancing Translational Sciences (NCATS), 2011).
# Where “and” joins values, the source holds several entries; their conditions need not be identical. Identical values can stand only once. The whole screen tested about 320,000 compounds, of which about 22,000 (6.9%) were called active. Inconclusive results, whose numbers are uncertain, are shown with a selection of clear calls. The call rests on the fitted dose curve; in most records, active means well fitted inhibition curve with a large enough effect; inconclusive means small, poorly fitted or top-dose-only effect, or another doubt; inactive means no such curve, though single readings can be large or run the other way. Potencies beside an inconclusive call are fits to weak or partial responses and may not hold up.
# Test: Primary qHTS for delayed death inhibitors of the malarial parasite plastid, 96 hour incubation
# Settings: P. falciparum luciferase reporter growth; series mostly up to 28.7 µM
# How it was run: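 96 h incubation, 37 C, 5% CO2, of luciferase-reporter P. falciparum-infected RBCs (2% hematocrit, 0.05% parasitemia final) with test compounds; endpoint luminescence.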
# Potency means the concentration at half of the fitted maximal effect.
row,SMILES,Potency
1,COc1ccc(NC(=O)C/C(C)=N/NC(=O)C2CCCCC2)c([N+](=O)[O-])c1,active: 10.4 µM
2,O=C(CSc1ccccc1)NCCSCc1ccccc1,"inconclusive: 5.86 µM [inhibitor, single point]"
3,N/C(=N\OC(=O)c1cccc2ccccc12)c1ccc(Br)cc1,"inconclusive: 2.94 µM [inhibitor, partial curve, poor fit]"
4,COc1ccc(-c2nc(CS(=O)CC(=O)NCCCN3CCCC(C)C3)c(C)o2)cc1OC (centres undefined),"inconclusive: 11.7 µM [inhibitor, partial curve, poor fit]"
5,Cc1ccc(-c2c3c(nc4sc(C(N)=O)c(N)c24)CCC3)cc1,"inconclusive: 0.329 µM [inhibitor, full curve, poor fit]"
6,COCCNc1oc(/C=C/c2ccccc2OC)nc1S(=O)(=O)c1ccccc1,active: 7.38 µM
7,O=C(O)C1=C[C@H](C2CC2)C[C@H](OCCCCO)O1,inactive
8,COc1ccccc1C1CCN(Cc2ccc(Cl)c(Cl)c2)CC1,"inconclusive: 13.1 µM [inhibitor, single point]"
9,Cn1c(CNC(=O)CNC(=O)Cc2ccc(Cl)cc2)cc(=O)n(C)c1=O,"inconclusive: 18.5 µM [inhibitor, single point]"
10,Cc1cc(C)nc(SCC(=O)Nc2ncc(C(F)(F)F)cc2Cl)n1,inactive
11,Cc1ccc(NC(=O)c2oc3ccc(S(=O)(=O)N4CCC5(CC4)OCCO5)cc3c2C)cc1C,"inconclusive: 6.57 µM [inhibitor, partial curve, poor fit]"
12,COC(=O)c1ccccc1NC(=O)Cc1ccccc1OC,"inconclusive: 11.7 µM [inhibitor, single point]"
13,CCOC(=O)C1(CC2CC2)CCN(S(=O)(=O)C[C@]23CC[C@H](CC2=O)C3(C)C)CC1,inactive
14,CC(=O)Nc1ccc(NC(=O)Cc2ccc(-c3ccccc3)cc2)cc1,inactive
15,Cc1cc(C)cc(Nc2ncnc3nc[nH]c23)c1,"inconclusive: 10.4 µM [inhibitor, partial curve, poor fit]"
16,Cc1cccc(C(=O)NNC(=O)C23CC4CC(CC(C4)C2)C3)c1O,inactive
17,COc1ccc(NC(=O)CCCNC(=O)c2ccc(Cl)cc2)cc1OC,"inconclusive: 1.85 µM [inhibitor, full curve]"
18,Cc1cc(C)c(NC(=O)COC(=O)c2cccc3c2C(=O)c2ccccc2C3=O)c(C)c1,"inconclusive: 7.38 µM [inhibitor, partial curve]"
19,CCN1CCN(c2nc3ccccc3nc2C(C#N)C(=O)OC2CCCCC2)CC1 (centres undefined),"inconclusive: 3.29 µM [inhibitor, full curve] and inconclusive: 13.1 µM [inhibitor, single point]"
